PubChem BioAssay AID493246 – Drosophila RNAi Screening Center | 2011
The screen tested about 21,000 reagents; below is a random part of those with a known target gene and a result. In the full data, 429 (2%) were called active. 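Values are raw and not normalised between plates; calls rest on per-plate z-scores that were not deposited.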 The numbers tell different reagents against one gene apart. No sequences are given here. The record does not give: the amount of reagent, the time to read-out.

Aim: 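Genes fly cells need to grow and stay alive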 (primary screen)
System: Drosophila Kc and S2R+ cells
Reagent: long dsRNA against Drosophila genes
Measurement: 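Raw, unnormalised count of remaining cells in each well; per-plate z-scores of cell number underlie the calls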
Direction: Kc cell number and S2R+ cell number: higher = more cells remaining
Rule for the call: 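Counted as a hit if cell number falls by a z-score of at least 3 within its plate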

Which result is listed for C901?
Kc cell number, rep 1: 1.64e6; Kc cell number, rep 2: 1.68e6; S2R+ cell number, rep 1: 1.03e6; S2R+ cell number, rep 2: 1.18e6; Call: inactive

What is on record for Dscam4 (Down syndrome cell adhesion molecule 4) #1?
Kc cell number, rep 1: 1.65e6; Kc cell number, rep 2: 1.82e6; S2R+ cell number, rep 1: 1.20e6; S2R+ cell number, rep 2: 1.38e6; Call: inactive

For Dscam4 (Down syndrome cell adhesion molecule 4) #2, what was measured?
Kc cell number, rep 1: 1.53e6; Kc cell number, rep 2: 1.71e6; S2R+ cell number, rep 1: 1.09e6; S2R+ cell number, rep 2: 1.26e6; Call: inactive

Which result is listed for Dscam4 (Down syndrome cell adhesion molecule 4) #3?
Kc cell number, rep 1: 1.62e6; Kc cell number, rep 2: 1.47e6; S2R+ cell number, rep 1: 9.87e5; S2R+ cell number, rep 2: 1.11e6; Call: inactive

Which result is listed for Dscam4 (Down syndrome cell adhesion molecule 4) #4?
Kc cell number, rep 1: 1.41e6; Kc cell number, rep 2: 1.33e6; S2R+ cell number, rep 1: 8.71e5; S2R+ cell number, rep 2: 1.02e6; Call: inactive

For Dscam4 (Down syndrome cell adhesion molecule 4) #5, what does the deposit list?
Kc cell number, rep 1: 1.52e6; Kc cell number, rep 2: 1.38e6; S2R+ cell number, rep 1: 1.10e6; S2R+ cell number, rep 2: 1.22e6; Call: inactive

For Nox (NADPH oxidase) #1, how do the results read?
Kc cell number, rep 1: 1.51e6; Kc cell number, rep 2: 1.58e6; S2R+ cell number, rep 1: 1.14e6; S2R+ cell number, rep 2: 1.26e6; Call: inactive

What did the screen give for Nox (NADPH oxidase) #2?
Kc cell number, rep 1: 1.53e6; Kc cell number, rep 2: 1.59e6; S2R+ cell number, rep 1: 1.09e6; S2R+ cell number, rep 2: 1.25e6; Call: inactive

For CG16957, how do the results read?
Kc cell number, rep 1: 1.48e6; Kc cell number, rep 2: 1.56e6; S2R+ cell number, rep 1: 1.25e6; S2R+ cell number, rep 2: 1.38e6; Call: inactive

How did the screen score t-Grip84 (testis-specific gamma-tubulin ring protein 84)?
Kc cell number, rep 1: 1.57e6; Kc cell number, rep 2: 1.51e6; S2R+ cell number, rep 1: 1.15e6; S2R+ cell number, rep 2: 1.21e6; Call: inactive

What did the screen give for CG10336?
Kc cell number, rep 1: 1.25e6; Kc cell number, rep 2: 1.31e6; S2R+ cell number, rep 1: 1.22e6; S2R+ cell number, rep 2: 1.27e6; Call: inactive

What is on record for CR18166 (pseudo) #1?
Kc cell number, rep 1: 1.25e6; Kc cell number, rep 2: 1.40e6; S2R+ cell number, rep 1: 1.07e6; S2R+ cell number, rep 2: 1.14e6; Call: inactive

With CR18166 (pseudo) #2, how do the results read?
Kc cell number, rep 1: 1.67e6; Kc cell number, rep 2: 1.63e6; S2R+ cell number, rep 1: 1.03e6; S2R+ cell number, rep 2: 1.13e6; Call: inactive

What is on record for Asph (Aspartyl beta-hydroxylase) #1?
Kc cell number, rep 1: 1.72e6; Kc cell number, rep 2: 1.82e6; S2R+ cell number, rep 1: 1.16e6; S2R+ cell number, rep 2: 1.23e6; Call: inactive

Which result is listed for Asph (Aspartyl beta-hydroxylase) #2?
Kc cell number, rep 1: 1.30e6; Kc cell number, rep 2: 1.37e6; S2R+ cell number, rep 1: 1.12e6; S2R+ cell number, rep 2: 1.17e6; Call: inactive

What is on record for CG14543?
Kc cell number, rep 1: 1.47e6; Kc cell number, rep 2: 1.62e6; S2R+ cell number, rep 1: 9.71e5; S2R+ cell number, rep 2: 1.08e6; Call: inactive

What did the screen give for Aptx (aprataxin)?
Kc cell number, rep 1: 1.43e6; Kc cell number, rep 2: 1.44e6; S2R+ cell number, rep 1: 1.08e6; S2R+ cell number, rep 2: 1.20e6; Call: inactive

With Bmcp, how do the results read?
Kc cell number, rep 1: 1.37e6; Kc cell number, rep 2: 1.42e6; S2R+ cell number, rep 1: 1.25e6; S2R+ cell number, rep 2: 1.21e6; Call: inactive

What did the screen give for cype (cyclope)?
Kc cell number, rep 1: 1.39e6; Kc cell number, rep 2: 1.39e6; S2R+ cell number, rep 1: 1.08e6; S2R+ cell number, rep 2: 1.25e6; Call: inactive

Which result is listed for CG9682?
Kc cell number, rep 1: 5.52e5; S2R+ cell number, rep 1: 8.66e5; Call: inactive

For aos (argos), what was measured?
Kc cell number, rep 1: 1.29e6; Kc cell number, rep 2: 1.56e6; S2R+ cell number, rep 1: 1.37e6; S2R+ cell number, rep 2: 1.41e6; Call: inactive

What did the screen give for Oseg2 (Outer segment 2)?
Kc cell number, rep 1: 1.64e6; Kc cell number, rep 2: 1.54e6; S2R+ cell number, rep 1: 9.62e5; S2R+ cell number, rep 2: 1.40e6; Call: inactive

For CG6023, what was measured?
Kc cell number, rep 1: 1.42e6; Kc cell number, rep 2: 1.50e6; S2R+ cell number, rep 1: 1.04e6; S2R+ cell number, rep 2: 1.17e6; Call: inactive

What did the screen give for Tctp (Translationally controlled tumor protein)?
Kc cell number, rep 1: 1.67e6; Kc cell number, rep 2: 1.69e6; S2R+ cell number, rep 1: 1.14e6; S2R+ cell number, rep 2: 1.24e6; Call: inactive

For CG15472, what was measured?
Kc cell number, rep 1: 1.54e6; Kc cell number, rep 2: 1.53e6; S2R+ cell number, rep 1: 1.07e6; S2R+ cell number, rep 2: 1.14e6; Call: inactive

Which result is listed for Med (Medea)?
Kc cell number, rep 1: 1.38e6; Kc cell number, rep 2: 1.50e6; S2R+ cell number, rep 1: 6.18e5; S2R+ cell number, rep 2: 7.39e5; Call: active

With Nach, what does the deposit list?
Kc cell number, rep 1: 1.50e6; Kc cell number, rep 2: 1.57e6; S2R+ cell number, rep 1: 1.16e6; S2R+ cell number, rep 2: 1.29e6; Call: inactive

Just “S2R+ cell number, rep 2”, for 2 of the entries above:
CG10336: 1.27e6
CR18166 (pseudo) #1: 1.14e6
